The subject of this test is M. tuberculosis H37Rv. Nature of the test: Minimum inhibitory concentration. The test is classed as cell-based. The settings on record: Mycobacterium tuberculosis, read-out: MIC value.

The results in this text go back to patent publication EP2982983B1, “METHOD FOR DRUG SUSCEPTIBILITY TESTING OF MYCOBACTERIUM TUBERCULOSIS BY ELECTRON PARAMAGNETIC RESONANCE” (priority 2014, dated 2016).

The MIC is the lowest concentration that inhibits growth of the organism.

Converted amounts (≈) assume the structure as drawn.

As for `CO[C@H]1/C=C/O[C@@]2(C)Oc3c(C)c(O)c4c(O)c(c(/C=N/N5CCN(C)CC5)c(O)c4c3C2=O)NC(=O)/C(C)=C\C=C\[C@H](C)[C@H](O)[C@@H](C)[C@@H](O)[C@@H](C)[C@H](OC(C)=O)[C@@H]1C` [rifampicin], the MIC stood at 0.125 µg/mL (≈ 0.152 µM).
